Source: PubChem BioAssay AID602196 (INSERM, 2012)

Purpose: 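Modifiers of cisplatin sensitivity in A549 cells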
Cell system: human A549 lung cancer cells
Reagent: siRNA pair against human genes
Timing: 48 h transfection before cisplatin; time from cisplatin to read-out not stated
Conditions: cisplatin at a dose killing half of control-siRNA cells; exact dose and duration not given
Measurement: 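Cisplatin cell death as a shift from the 50% death seen with control siRNA; siRNAs toxic or growth-blocking alone scored 0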
Reading the numbers: two-siRNA summed score (-2 to +2): higher = both siRNAs protect from cisplatin killing; -2 means both sensitise
Active means: 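Each siRNA scores 0 if harmful alone by LDH or WST-1, otherwise +1 if it reduces and -1 if it increases cisplatin killing; a gene is active when both siRNAs agree (sum +2 or -2)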
Calls: active = both siRNAs shift cisplatin killing the same way; inactive = no consistent shift, or siRNA harmful alone
Here is one part, drawn at random, of about 23,000 reagents. 455 of all reagents (2%) count as active. 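Active includes both protection and sensitisation; some change values fall well beyond the stated -50 to +50 range.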 Not all columns of the deposit are shown. Not given: the amount of reagent.

target,two-siRNA summed score (-2 to +2),outcome
FLJ42528,0,inactive
MTFMT,0,inactive
BBC3,0,inactive
LINC01142,0,inactive
LOC343637,0,inactive
ZNF443,1,inactive
BRD3,0,inactive
CASS4,0,inactive
CD207,0,inactive
SLC39A9,0,inactive
FLVCR1,-1,inactive
OR6C68,1,inactive
SPRR1A,0,inactive
PITPNM2,0,inactive
DCAF8,0,inactive
IL36A,0,inactive
OR8H3,0,inactive
LOC440172,0,inactive
LOC399983,0,inactive
FBXL3,-1,inactive
LNPK,1,inactive

The list goes on; the last 6 above are carried over.
target,two-siRNA summed score (-2 to +2),outcome
IL36A,0,inactive
OR8H3,0,inactive
LOC440172,0,inactive
LOC399983,0,inactive
FBXL3,-1,inactive
LNPK,1,inactive
LOC285694,0,inactive
GP1BB,1,inactive
AFF2,0,inactive
POU6F2,0,inactive
LOC441902,1,inactive
JAML,0,inactive
NHERF1,1,inactive
NOAZFP,0,inactive
LDHB,0,inactive
GPX5,-1,inactive
CIMIP5,0,inactive
SIGLEC10,0,inactive
GAL,0,inactive
LOC401454,0,inactive
CDH5,0,inactive
OR10G7,0,inactive
LOC286526,1,inactive
CHRNA4,-2,active
TSPYL4,0,inactive
VPS51,0,inactive
COA4,0,inactive
LOC344988,0,inactive
OLAH,0,inactive
DNAJC15,0,inactive
LGALS8,-1,inactive
SAMM50,0,inactive
MTFR1L,0,inactive
LOC220998,1,inactive
FLJ25404,0,inactive
ZIC4,0,inactive
LOC441821,0,inactive
TMEM132E-DT,0,inactive
APOC1,1,inactive
TTC1,0,inactive
LOC441752,0,inactive
KLHL18,0,inactive
